Data as given in the supplement of paper PMC5662767.
Where a name gives a salt, the structure may show the parent alone. Some of the results follow. Plates or batches differ in their baseline, so values are only roughly comparable.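 The clonal Drosophila S2 line carries Smoothened with a circularly permuted GFP inserted in its cytoplasmic tail, which fluoresces once Hh-driven phosphorylation opens an inhibitory loop. Per-cell fluorescence was read by flow cytometry, scaled to Hh-stimulated untreated cells. Hits were groups of inhibitors sharing pathway targets that shifted fluorescence consistently, not single compounds.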

test system: Drosophila S2 cl14 SmoIP sensor cells; assay: normalized SmoIP GFP fluorescence (untreated unstimulated = 0%, untreated Hh-stimulated = 100%); higher = more Smo activation sensor fluorescence; conditions: stimulation: Hh conditioned medium (+Hh); compound concentration: 15 uM; 24 h

SMILES | normalized SmoIP GFP fluorescence [%]
C[C@H](N[C@@H](CCc1ccccc1)C(=O)O)C(=O)N1CCC[C@H]1C(=O)O [Enalaprilat] | 130
NC(=O)c1cccc(-c2cccc(OC(=O)NC3CCCCC3)c2)c1 | 141
C[C@@H]1CCN(C(=O)CC#N)C[C@@H]1N(C)c1ncnc2[nH]ccc12 | 122
CC[C@H](C)C(=O)O[C@@H]1C[C@@H](C)C=C2C=C[C@H](C)[C@@H](CC[C@@H]3C[C@@H](O)CC(=O)O3)[C@H]21 [lovastatin-mevacor] | 110
COc1cc2ncnc(Nc3ccc(F)c(Cl)c3)c2cc1OCCCN1CCOCC1 [Gefitinib] | 230
CCS(=O)(=O)N1CC(CC#N)(n2cc(-c3ncnc4[nH]ccc34)cn2)C1 | 79.6
CCc1nc(N)nc(N)c1-c1ccc(Cl)cc1 [Pyrimethamine] | 171
CC(C)(F)C[C@H](N[C@@H](c1ccc(-c2ccc(S(C)(=O)=O)cc2)cc1)C(F)(F)F)C(=O)NC1(C#N)CC1 [Odanacatib-(MK0822)] | 151
C=CC[N+]1([C@H]2C[C@H]3[C@@H]4CC[C@H]5C[C@H](O)[C@@H](N6CCOCC6)C[C@]5(C)[C@H]4CC[C@]3(C)[C@H]2OC(C)=O)CCCC1 [Rocuronium-bromide] | 123
O=P(O)(O)C(O)(Cn1ccnc1)P(=O)(O)O [Zoledronic-Acid] | 132
CN1[C@@H]2CC[C@H]1C[C@@H](OC(c1ccccc1)c1ccccc1)C2 [benztropine-mesylate] | 136
O=c1oc2cc(O)ccc2s1 [tioxolone] | 145
CC(COc1ccccc1)N(CCCl)Cc1ccccc1 (centres undefined) [Phenoxybenzamine-hydrochloride] | 198
Nc1nc(N)c2nc(-c3cccc(O)c3)c(-c3cccc(O)c3)nc2n1 | 126
N[C@@H](CC(=O)N1CCn2c(nnc2C(F)(F)F)C1)Cc1cc(F)c(F)cc1F [Sitagliptin] | 114
CCOC(=O)c1ccc(N2NC(=O)C(=Cc3ccc([N+](=O)[O-])o3)C2=O)cc1 | 263
Cn1c(=O)c2[nH]cnc2n(C)c1=O [Aminophylline(Truphylline)] | 141
CC[C@H](Nc1ncnc2[nH]cnc12)c1nc2cccc(F)c2c(=O)n1-c1ccccc1 | 126
CCCOc1ccc(C(=O)OCCN(CC)CC)cc1N [proparacaine-hcl] | 114
COc1cc2ncnc(Oc3cccc(NC(=O)Nc4cc(C(C)(C)C(F)(F)F)on4)c3)c2cc1OC | 134

SMILES | normalized SmoIP GFP fluorescence [%]
CC(=O)NS(=O)(=O)c1ccc(N)cc1 [sulfacetamide-sodium] | 110
CC1CCN(CC[C@H]2CCCN2S(=O)(=O)c2cccc(O)c2)CC1 | 119
COc1cc(F)c(C(C)C)cc1-c1ccc(C(F)(F)F)cc1CN1C(=O)O[C@H](c2cc(C(F)(F)F)cc(C(F)(F)F)c2)[C@@H]1C [anacetrapib-mk-0859] | 148
CC[C@@H](C)Nc1cc(C(=O)N[C@H]2C[C@H]3CC[C@@H](C2)N3c2ccc(C(=O)C3CC3)cn2)c(C)cc1C(N)=O | 158
c1cn2cc(-c3ccc4cn[nH]c4c3)nc(Nc3ccc(N4CCOCC4)cc3)c2n1 | 152
O=C(O)c1ccc(C=C2SC(=S)N(c3cccc(C(F)(F)F)c3)C2=O)cc1 [cftrinh-172] | 152
NC(=O)N1CCC(CC(=O)N2CCC(C3c4ncc(Br)cc4CCc4cc(Cl)cc(Br)c43)CC2)CC1 (centres undefined) | 154
Cc1nnc(C(=O)NC(C)(C)c2nc(C(=O)NCc3ccc(F)cc3)c(O)c(=O)n2C)o1 [Raltegravir-(MK-0518)] | 121
CC1(C)CCC(c2ccc(Cl)cc2)=C(CN2CCN(c3ccc(C(=O)NS(=O)(=O)c4ccc(N[C@H](CCN5CCOCC5)CSc5ccccc5)c(S(=O)(=O)C(F)(F)F)c4)cc3)CC2)C1 | 101
Cc1cnc(-c2cnc(NCCNc3ccc(C#N)cn3)nc2-c2ccc(Cl)cc2Cl)[nH]1 | 134
COc1cc(N2CCC(N)CC2)ccc1Nc1ncc(Cl)c(-c2c[nH]c3ccccc23)n1 | 179
CCCc1nn(C)c2c(=O)[nH]c(-c3cc(S(=O)(=O)N4CCN(C)CC4)ccc3OCC)nc12 [Sildenafil-citrate] | 135
CNCc1ccc(-c2[nH]c3cc(F)cc4c3c2CCNC4=O)cc1 | 218
CC1(C)CC(=O)c2c(C(F)(F)F)nn(-c3ccc(C(N)=O)c(N[C@H]4CC[C@H](OC(=O)CN)CC4)c3)c2C1 | 270
CCO[C@@H]1OC(=O)C[C@@H]1NC(=O)[C@@H]1CCCN1C(=O)[C@@H](NC(=O)c1ccc(N)c(Cl)c1)C(C)(C)C | 134
Oc1ccc(-c2nc(-c3ccc(F)cc3)c(-c3ccncc3)[nH]2)cc1 | 159
Nc1ccc2ncnc(NCCc3ccc(Oc4ccccc4)cc3)c2c1 | 54.5
Cc1nn(-c2ccccc2)c(C)c1C=NN1CCN(Cc2ccccc2)CC1 [sant-1] | 119
Cc1ccc(-c2cc(C(F)(F)F)nn2-c2ccc(S(N)(=O)=O)cc2)cc1 [Celecoxib] | 172

Arranged by length of the SMILES (low to high): some entries from above.
SMILES | normalized SmoIP GFP fluorescence [%]
O=C(O)c1ccc(C=C2SC(=S)N(c3cccc(C(F)(F)F)c3)C2=O)cc1 [cftrinh-172] | 152
CCCc1nn(C)c2c(=O)[nH]c(-c3cc(S(=O)(=O)N4CCN(C)CC4)ccc3OCC)nc12 [Sildenafil-citrate] | 135
CCO[C@@H]1OC(=O)C[C@@H]1NC(=O)[C@@H]1CCCN1C(=O)[C@@H](NC(=O)c1ccc(N)c(Cl)c1)C(C)(C)C | 134
